Data: the supplement of paper PMC10849652
Some of the results follow.

Sequences of proteins named here, by UniProt entry; tags and fusion partners are left off. A change or cut given only in a name is not applied to a line headed by its entry.
UniProt O94919: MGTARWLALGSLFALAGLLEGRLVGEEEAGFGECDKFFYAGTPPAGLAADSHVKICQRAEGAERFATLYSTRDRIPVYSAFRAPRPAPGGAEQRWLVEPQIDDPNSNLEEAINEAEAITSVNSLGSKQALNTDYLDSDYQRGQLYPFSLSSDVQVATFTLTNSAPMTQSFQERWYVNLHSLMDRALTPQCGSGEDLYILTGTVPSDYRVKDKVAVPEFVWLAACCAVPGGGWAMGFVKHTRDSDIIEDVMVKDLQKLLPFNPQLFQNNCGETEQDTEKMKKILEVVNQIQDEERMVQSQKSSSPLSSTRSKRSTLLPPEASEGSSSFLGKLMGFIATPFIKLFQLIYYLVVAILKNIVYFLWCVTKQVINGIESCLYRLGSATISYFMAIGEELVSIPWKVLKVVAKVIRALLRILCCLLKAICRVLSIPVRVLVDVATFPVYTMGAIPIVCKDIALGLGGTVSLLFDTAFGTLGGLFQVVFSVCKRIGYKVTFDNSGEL
UniProt Q9P2K8: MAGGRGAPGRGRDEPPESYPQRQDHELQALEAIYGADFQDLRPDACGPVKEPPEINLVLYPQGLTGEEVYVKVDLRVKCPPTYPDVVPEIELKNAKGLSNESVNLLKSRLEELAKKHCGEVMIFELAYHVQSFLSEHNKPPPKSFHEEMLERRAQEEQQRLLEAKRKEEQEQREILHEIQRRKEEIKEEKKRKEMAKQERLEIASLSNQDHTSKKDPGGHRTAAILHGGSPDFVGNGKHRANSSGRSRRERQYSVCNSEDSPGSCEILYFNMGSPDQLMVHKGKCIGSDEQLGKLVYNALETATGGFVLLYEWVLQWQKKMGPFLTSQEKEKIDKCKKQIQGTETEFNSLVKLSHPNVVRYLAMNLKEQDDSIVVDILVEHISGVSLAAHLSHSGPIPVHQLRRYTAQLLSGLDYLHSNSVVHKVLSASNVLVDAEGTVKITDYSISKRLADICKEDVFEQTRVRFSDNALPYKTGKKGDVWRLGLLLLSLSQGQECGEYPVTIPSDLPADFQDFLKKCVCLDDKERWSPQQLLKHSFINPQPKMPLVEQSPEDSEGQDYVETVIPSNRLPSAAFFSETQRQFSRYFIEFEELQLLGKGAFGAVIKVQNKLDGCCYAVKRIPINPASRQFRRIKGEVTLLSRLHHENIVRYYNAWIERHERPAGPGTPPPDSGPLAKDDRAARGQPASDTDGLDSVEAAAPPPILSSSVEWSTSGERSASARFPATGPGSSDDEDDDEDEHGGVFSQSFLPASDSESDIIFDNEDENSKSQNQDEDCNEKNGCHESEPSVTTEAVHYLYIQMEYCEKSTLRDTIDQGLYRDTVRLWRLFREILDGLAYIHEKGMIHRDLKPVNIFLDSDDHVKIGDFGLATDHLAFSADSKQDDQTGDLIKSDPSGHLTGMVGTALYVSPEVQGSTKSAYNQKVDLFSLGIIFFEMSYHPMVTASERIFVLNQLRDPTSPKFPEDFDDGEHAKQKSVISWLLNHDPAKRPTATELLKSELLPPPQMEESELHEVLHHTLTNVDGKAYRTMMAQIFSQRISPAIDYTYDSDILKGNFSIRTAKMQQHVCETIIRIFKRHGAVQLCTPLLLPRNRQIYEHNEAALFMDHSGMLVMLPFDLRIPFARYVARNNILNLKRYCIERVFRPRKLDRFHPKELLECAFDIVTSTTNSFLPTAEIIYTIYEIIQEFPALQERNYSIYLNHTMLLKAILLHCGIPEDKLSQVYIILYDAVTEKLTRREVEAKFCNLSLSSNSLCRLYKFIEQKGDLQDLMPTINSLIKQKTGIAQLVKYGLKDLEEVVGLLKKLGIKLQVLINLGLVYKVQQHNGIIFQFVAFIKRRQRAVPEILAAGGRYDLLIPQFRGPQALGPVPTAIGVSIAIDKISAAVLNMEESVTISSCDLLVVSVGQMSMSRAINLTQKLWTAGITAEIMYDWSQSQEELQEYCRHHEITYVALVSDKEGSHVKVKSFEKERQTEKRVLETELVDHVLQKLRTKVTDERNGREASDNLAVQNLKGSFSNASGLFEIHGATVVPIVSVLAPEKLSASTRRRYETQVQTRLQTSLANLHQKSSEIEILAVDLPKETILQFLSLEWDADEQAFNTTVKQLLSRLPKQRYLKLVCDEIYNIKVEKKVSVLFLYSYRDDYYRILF
UniProt P11171, whole entry, looked up: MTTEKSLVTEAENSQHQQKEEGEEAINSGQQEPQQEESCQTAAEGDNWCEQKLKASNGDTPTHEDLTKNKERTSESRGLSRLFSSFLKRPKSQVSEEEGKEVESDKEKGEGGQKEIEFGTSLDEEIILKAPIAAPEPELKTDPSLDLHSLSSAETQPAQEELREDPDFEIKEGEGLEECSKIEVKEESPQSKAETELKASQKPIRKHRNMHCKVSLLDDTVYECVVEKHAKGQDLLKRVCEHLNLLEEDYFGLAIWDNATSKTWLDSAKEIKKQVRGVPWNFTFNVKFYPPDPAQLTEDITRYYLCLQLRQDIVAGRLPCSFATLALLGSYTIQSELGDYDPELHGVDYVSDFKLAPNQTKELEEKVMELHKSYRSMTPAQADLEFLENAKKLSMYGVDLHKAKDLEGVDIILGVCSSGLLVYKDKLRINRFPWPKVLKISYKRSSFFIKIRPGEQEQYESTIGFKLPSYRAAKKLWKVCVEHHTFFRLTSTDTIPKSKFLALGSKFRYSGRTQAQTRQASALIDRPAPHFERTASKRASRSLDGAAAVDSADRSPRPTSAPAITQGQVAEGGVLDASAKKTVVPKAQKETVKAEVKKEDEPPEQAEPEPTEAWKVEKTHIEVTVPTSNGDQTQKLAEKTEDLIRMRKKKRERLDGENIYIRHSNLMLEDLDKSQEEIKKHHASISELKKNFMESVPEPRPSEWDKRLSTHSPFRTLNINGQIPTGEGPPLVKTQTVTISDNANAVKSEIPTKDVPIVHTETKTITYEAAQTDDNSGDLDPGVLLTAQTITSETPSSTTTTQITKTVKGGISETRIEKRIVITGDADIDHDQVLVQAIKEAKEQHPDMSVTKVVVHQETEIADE
UniProt Q6IA86: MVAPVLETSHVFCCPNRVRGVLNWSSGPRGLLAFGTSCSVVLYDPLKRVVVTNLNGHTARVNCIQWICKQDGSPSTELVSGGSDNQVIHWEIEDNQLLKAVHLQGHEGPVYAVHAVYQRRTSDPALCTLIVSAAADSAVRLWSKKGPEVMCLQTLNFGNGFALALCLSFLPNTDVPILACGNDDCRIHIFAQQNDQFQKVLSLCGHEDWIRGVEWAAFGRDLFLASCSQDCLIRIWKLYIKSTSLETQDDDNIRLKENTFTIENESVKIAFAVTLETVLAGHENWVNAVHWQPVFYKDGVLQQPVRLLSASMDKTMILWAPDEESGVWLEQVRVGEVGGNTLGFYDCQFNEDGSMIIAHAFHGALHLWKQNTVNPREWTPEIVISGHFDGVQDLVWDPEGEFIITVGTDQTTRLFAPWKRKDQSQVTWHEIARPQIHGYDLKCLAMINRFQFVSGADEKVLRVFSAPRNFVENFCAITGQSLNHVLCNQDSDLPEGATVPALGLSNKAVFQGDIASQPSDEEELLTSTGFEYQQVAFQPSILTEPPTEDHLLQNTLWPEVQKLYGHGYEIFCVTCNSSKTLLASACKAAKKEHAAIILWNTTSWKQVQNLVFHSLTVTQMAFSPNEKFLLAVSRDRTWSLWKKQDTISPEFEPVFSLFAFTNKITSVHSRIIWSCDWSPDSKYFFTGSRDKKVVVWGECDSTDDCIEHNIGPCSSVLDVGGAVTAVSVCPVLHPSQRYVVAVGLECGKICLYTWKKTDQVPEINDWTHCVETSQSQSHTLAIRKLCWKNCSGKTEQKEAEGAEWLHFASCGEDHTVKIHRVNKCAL
UniProt Q53HC9: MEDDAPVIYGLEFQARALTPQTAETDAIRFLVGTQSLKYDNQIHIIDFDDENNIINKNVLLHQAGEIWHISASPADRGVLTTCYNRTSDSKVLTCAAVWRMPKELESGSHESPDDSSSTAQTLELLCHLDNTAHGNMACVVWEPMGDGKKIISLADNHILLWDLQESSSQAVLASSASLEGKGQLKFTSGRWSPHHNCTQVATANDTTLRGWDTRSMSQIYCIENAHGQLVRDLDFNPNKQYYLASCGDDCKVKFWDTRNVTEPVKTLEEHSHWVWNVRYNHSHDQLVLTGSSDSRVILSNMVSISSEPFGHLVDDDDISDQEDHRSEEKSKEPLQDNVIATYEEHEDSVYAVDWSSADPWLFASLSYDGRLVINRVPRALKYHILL
UniProt P09104, whole entry, looked up: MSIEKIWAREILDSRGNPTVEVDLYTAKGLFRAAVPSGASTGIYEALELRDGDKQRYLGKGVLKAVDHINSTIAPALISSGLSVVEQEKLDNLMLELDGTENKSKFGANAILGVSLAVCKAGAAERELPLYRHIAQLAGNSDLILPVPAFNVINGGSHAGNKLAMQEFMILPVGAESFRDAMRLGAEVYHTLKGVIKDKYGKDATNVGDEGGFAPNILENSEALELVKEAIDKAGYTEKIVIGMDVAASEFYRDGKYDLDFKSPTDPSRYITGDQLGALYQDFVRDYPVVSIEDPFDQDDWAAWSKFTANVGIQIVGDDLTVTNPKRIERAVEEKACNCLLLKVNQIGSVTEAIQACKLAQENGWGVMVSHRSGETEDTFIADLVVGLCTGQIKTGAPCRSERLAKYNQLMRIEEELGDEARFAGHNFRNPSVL
UniProt Q08426: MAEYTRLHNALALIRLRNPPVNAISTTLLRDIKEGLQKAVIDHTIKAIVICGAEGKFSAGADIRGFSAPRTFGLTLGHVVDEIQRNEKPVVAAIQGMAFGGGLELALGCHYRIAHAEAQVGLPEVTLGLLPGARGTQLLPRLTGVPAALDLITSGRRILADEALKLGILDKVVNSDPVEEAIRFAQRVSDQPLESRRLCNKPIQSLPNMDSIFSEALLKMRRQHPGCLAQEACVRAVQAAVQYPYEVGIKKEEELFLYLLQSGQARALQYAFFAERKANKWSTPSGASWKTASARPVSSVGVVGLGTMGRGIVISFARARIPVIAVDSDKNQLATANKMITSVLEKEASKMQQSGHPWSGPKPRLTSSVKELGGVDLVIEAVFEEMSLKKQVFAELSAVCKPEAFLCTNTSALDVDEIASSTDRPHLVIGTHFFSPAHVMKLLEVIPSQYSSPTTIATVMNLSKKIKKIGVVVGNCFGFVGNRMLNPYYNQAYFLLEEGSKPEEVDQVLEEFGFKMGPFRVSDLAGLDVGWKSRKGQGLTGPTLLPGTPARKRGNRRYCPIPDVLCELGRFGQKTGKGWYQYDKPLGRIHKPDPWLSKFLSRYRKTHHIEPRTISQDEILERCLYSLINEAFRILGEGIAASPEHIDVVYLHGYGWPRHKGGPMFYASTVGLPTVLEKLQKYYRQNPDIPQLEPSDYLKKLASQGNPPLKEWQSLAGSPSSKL
UniProt Q9UHY7: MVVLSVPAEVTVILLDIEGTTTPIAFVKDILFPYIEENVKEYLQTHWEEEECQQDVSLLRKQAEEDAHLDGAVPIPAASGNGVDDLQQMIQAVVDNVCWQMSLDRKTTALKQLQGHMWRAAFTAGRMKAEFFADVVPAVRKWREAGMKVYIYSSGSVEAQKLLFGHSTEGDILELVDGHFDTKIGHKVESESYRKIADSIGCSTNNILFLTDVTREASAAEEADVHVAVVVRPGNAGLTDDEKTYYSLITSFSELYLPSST
UniProt O15371, whole entry, looked up: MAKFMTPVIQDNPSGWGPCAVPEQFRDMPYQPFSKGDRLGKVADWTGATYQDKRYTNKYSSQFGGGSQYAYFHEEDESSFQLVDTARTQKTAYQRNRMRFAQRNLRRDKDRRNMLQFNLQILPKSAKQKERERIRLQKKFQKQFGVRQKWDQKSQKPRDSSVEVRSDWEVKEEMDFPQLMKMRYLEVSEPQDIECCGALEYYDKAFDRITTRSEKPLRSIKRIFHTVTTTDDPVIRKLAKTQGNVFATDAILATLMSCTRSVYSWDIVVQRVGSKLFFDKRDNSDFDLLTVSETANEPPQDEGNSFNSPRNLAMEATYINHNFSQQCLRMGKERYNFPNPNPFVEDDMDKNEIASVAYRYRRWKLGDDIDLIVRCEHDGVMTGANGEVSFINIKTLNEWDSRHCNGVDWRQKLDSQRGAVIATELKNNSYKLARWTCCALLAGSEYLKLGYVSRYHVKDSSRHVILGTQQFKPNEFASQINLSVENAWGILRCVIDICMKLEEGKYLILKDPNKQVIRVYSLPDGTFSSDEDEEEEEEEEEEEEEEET
UniProt O15372, whole entry, looked up: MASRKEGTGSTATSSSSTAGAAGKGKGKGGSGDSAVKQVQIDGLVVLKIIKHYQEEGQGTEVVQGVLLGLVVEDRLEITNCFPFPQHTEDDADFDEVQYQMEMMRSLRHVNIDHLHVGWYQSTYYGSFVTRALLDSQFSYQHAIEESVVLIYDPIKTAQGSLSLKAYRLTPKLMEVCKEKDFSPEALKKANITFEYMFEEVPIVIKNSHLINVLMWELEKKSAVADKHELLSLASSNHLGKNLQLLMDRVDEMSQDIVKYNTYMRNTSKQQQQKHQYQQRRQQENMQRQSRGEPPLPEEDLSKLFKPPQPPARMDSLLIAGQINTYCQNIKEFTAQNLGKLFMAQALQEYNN

What was measured:
Assay in all cases: log2 fold change, soluble protein after heating vs DMSO (PISA); higher = thermal stabilisation; K562 cells, 10 uM, 30 min; active = over 0.2 and 3.5 SD of the protein, either way, in both replicates (recomputed)
[1] = compound: NC(=O)Nc1cc(-c2cccc(F)c2)sc1C(=O)N[C@H]1CCCNC1
How it was run: (§1)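 Soluble protein was defined as the supernatant after 21,000xg for 90 min. It came from K562 cells at 2×10^6 cells/mL given 10 μM compound for 30 min, heated in aliquots for 3 min across 48°C-58°C, pooled, and extracted in PBS with 0.5% NP-40 at 4°C, and was quantified by TMTpro 16plex LC-MS/MS with equalised channel sums. Thermal stability against control samples, from duplicates, is reported as log2 fold change.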

[2] = compound: NC(=O)c1cnc(N[C@@H]2CCCC[C@@H]2N)nc1Nc1cccc(-n2nccn2)c1
How it was run: as §1

[3] = compound: NC1(c2ccc(-c3nc4ccn5c(=O)[nH]nc5c4cc3-c3ccccc3)cc2)CCC1
How it was run: as §1

[4] = compound: NCC(=O)Nc1ccc(-n2nc(C(F)(F)F)cc2-c2ccc3c(ccc4ccccc43)c2)cc1
How it was run: as §1

[5] = compound: Nc1ccccc1NC(=O)c1ccc(CNC(=O)OCc2cccnc2)cc1 [entinostat]
How it was run: as §1

[6] = compound: O=C(CCCCCCC(=O)Nc1ccccc1)NO [vorinostat]
How it was run: as §1

[7] = compound: O=C(CCCCCCNC(=O)c1cnc(N(c2ccccc2)c2ccccc2Cl)nc1)NO [citarinostat]
How it was run: as §1

[8] = compound: O=C(O)c1ccc2c(c1)nc(Nc1cccc(Cl)c1)c1ccncc12 [silmitasertib]
How it was run: as §1

[9] = compound: O=C1NC(=O)C(c2cnc3ccccn23)=C1c1cn2c3c(cc(F)cc13)CN(C(=O)N1CCCCC1)CC2
How it was run: as §1

[10] = compound: c1cc(OCCN2CCCCC2)cc(-c2n[nH]c3ccc(-c4nnc[nH]4)cc23)c1
How it was run: as §1

[11] = compound: c1cn2cc(-c3ccc4cn[nH]c4c3)nc(Nc3ccc(N4CCOCC4)cc3)c2n1 [entospletinib]
How it was run: as §1

Measured: log2 fold change

ELP3 (UniProt Q9H9T3)
inactive: [1] -0.049 | [2] 0.015 | [3] -0.054 | [4] 0.012 | [5] 0.009 | [6] -0.008 | [7] 0.018 | [8] 0.015 | [9] 0 | [10] -0.027 | [11] -0.002

ENPP3 (UniProt O14638)
inactive: [1] -0.121 | [2] -0.067 | [3] -0.166 | [4] -0.136 | [5] -0.114 | [6] 0.002 | [7] -0.183 | [8] 0.245 | [9] -0.089 | [10] -0.027 | [11] 0.087

ELOF1 (UniProt P60002)
inactive: [1] -0.158 | [2] 0.061 | [3] 0.233 | [4] 0.082 | [5] 0.018 | [6] -0.064 | [7] 0.055 | [8] 0.129 | [9] -0.1 | [10] -0.055 | [11] 0.089

ENDOD1 (UniProt O94919)
inactive: [1] -0.033 | [2] 0.015 | [3] 0.029 | [4] -0.015 | [5] -0.051 | [6] -0.024 | [7] -0.016 | [8] -0.001 | [9] -0.043 | [10] -0.045 | [11] 0.052

EIF2AK4 (UniProt Q9P2K8)
inactive: [1] -0.031 | [2] 0.015 | [3] -0.09 | [4] -0.095 | [5] 0.049 | [6] 0.193 | [7] 0.199 | [8] 0.16 | [9] 0.001 | [10] -0.058 | [11] -0.043

ENSA isoform 3 (UniProt O43768)
inactive: [1] -0.021 | [2] -0.045 | [3] 0.032 | [4] 0.015 | [5] -0.021 | [6] -0.031 | [7] 0.021 | [8] -0.015 | [9] -0.031 | [10] 0.048 | [11] 0.03

EPB41 (UniProt P11171)
inactive: [1] -0.169 | [2] 0.028 | [3] -0.036 | [4] -0.049 | [5] -0.03 | [6] 0 | [7] 0 | [8] 0.028 | [9] -0.039 | [10] -0.098 | [11] 0.035

ELP6 (UniProt Q0PNE2)
inactive: [1] -0.003 | [2] -0.041 | [3] -0.035 | [4] -0.031 | [5] -0.032 | [6] -0.053 | [7] 0.021 | [8] 0.009 | [9] -0.087 | [10] 0 | [11] -0.006

EIF2AK2 (UniProt P19525)
inactive: [1] 0.037 | [2] -0.384 | [3] 0.36 | [4] 0.069 | [5] 0.041 | [6] 0.084 | [7] -0.054 | [8] 0.285 | [9] 0.369 | [10] -0.276 | [11] 0.136

EI24 (UniProt O14681)
inactive: [1] 0.044 | [2] -0.077 | [3] 0.026 | [4] 0 | [5] 0.004 | [6] 0.005 | [7] 0.004 | [8] 0.02 | [9] 0.053 | [10] 0.005 | [11] -0.065

EIF2S2 (UniProt P20042)
inactive: [1] 0.023 | [2] 0.047 | [3] 0.147 | [4] 0.043 | [5] -0.008 | [6] 0.023 | [7] -0.051 | [8] 0.051 | [9] 0.124 | [10] -0.066 | [11] 0.006

ELP2 isoform 6 (UniProt Q6IA86)
inactive: [1] -0.044 | [2] -0.038 | [3] -0.049 | [4] -0.029 | [5] 0.015 | [6] 0 | [7] 0.02 | [8] 0.02 | [9] -0.075 | [10] -0.036 | [11] -0.019

EIPR1 (UniProt Q53HC9)
inactive: [1] -0.038 | [2] 0.001 | [3] -0.054 | [4] -0.016 | [5] 0 | [6] 0.007 | [7] -0.012 | [8] 0.04 | [9] -0.068 | [10] 0.126 | [11] -0.055

ENGASE (UniProt Q8NFI3)
inactive: [1] 0.002 | [2] -0.099 | [3] -0.061 | [4] 0.04 | [5] -0.038 | [6] 0.021 | [7] 0.024 | [8] 0.009 | [9] -0.024 | [10] -0.012 | [11] 0.004

ENO2 (UniProt P09104)
inactive: [1] 0.037 | [2] -0.002 | [3] 0.027 | [4] 0.081 | [5] -0.013 | [6] 0.027 | [7] 0.063 | [8] -0.006 | [9] -0.013 | [10] -0.016 | [11] 0.021

EHHADH (UniProt Q08426)
inactive: [1] -0.051 | [2] -0.022 | [3] -0.042 | [4] -0.061 | [5] -0.015 | [6] 0.036 | [7] 0.015 | [8] 0.016 | [9] -0.011 | [10] -0.016 | [11] -0.038

EMC7 (UniProt Q9NPA0)
inactive: [1] -0.019 | [2] -0.045 | [3] -0.074 | [4] -0.04 | [5] -0.007 | [6] -0.038 | [7] -0.02 | [8] 0.029 | [9] -0.031 | [10] -0.1 | [11] 0.004

EIF4A3 (UniProt P38919)
inactive: [1] -0.082 | [2] -0.055 | [3] 0.025 | [4] -0.12 | [5] -0.016 | [6] -0.039 | [7] 0.03 | [8] -0.052 | [9] -0.016 | [10] -0.053 | [11] 0.089

ENOPH1 (UniProt Q9UHY7)
inactive: [1] 0.008 | [2] -0.07 | [3] -0.22 | [4] -0.079 | [5] 0.122 | [6] 0.046 | [7] 0.031 | [8] 0.006 | [9] -0.063 | [10] -0.009 | [11] 0.094

EIF6 (UniProt P56537)
inactive: [1] 0.032 | [2] -0.04 | [3] 0.046 | [4] 0.035 | [5] -0.04 | [6] -0.047 | [7] 0.017 | [8] 0.053 | [9] -0.019 | [10] 0.025 | [11] -0.007

ELOB (UniProt Q15370)
inactive: [1] -0.022 | [2] -0.116 | [3] -0.033 | [4] -0.065 | [5] 0.035 | [6] 0.016 | [7] 0.001 | [8] -0.014 | [9] -0.106 | [10] -0.033 | [11] 0.025

Reprinted from the listing (2 entries):
EMC7 (UniProt Q9NPA0)
inactive: [1] -0.019 | [2] -0.045 | [3] -0.074 | [4] -0.04 | [5] -0.007 | [6] -0.038 | [7] -0.02 | [8] 0.029 | [9] -0.031 | [10] -0.1 | [11] 0.004

EIF4A3 (UniProt P38919)
inactive: [1] -0.082 | [2] -0.055 | [3] 0.025 | [4] -0.12 | [5] -0.016 | [6] -0.039 | [7] 0.03 | [8] -0.052 | [9] -0.016 | [10] -0.053 | [11] 0.089

Later entries.

EIF3D (UniProt O15371)
inactive: [1] -0.065 | [2] -0.003 | [3] -0.04 | [4] -0.063 | [5] 0.056 | [6] 0.135 | [7] 0.064 | [8] 0.057 | [9] 0.275 | [10] -0.115 | [11] 0.079

EMC3 (UniProt Q9P0I2)
inactive: [1] -0.007 | [2] -0.049 | [3] -0.036 | [4] -0.017 | [5] -0.034 | [6] 0.084 | [7] 0.029 | [8] 0.01 | [9] -0.022 | [10] -0.056 | [11] -0.023

EIF3B isoform 2 (UniProt P55884)
inactive: [1] -0.073 | [2] -0.109 | [3] -0.11 | [4] -0.055 | [5] 0.012 | [6] 0.102 | [7] 0.086 | [8] 0.072 | [9] 0.124 | [10] -0.064 | [11] 0.048

EIF2A (UniProt Q9BY44)
inactive: [1] 0.009 | [2] 0.017 | [3] -0.008 | [4] 0.009 | [5] -0.013 | [6] 0.029 | [7] 0.01 | [8] 0.025 | [9] 0.043 | [10] -0.084 | [11] 0.02

EHD1 (UniProt Q9H4M9)
inactive: [1] -0.012 | [2] -0.005 | [3] -0.113 | [4] -0.011 | [5] 0.018 | [6] 0.046 | [7] 0.009 | [8] -0.033 | [9] -0.056 | [10] -0.012 | [11] -0.021

EIF3H (UniProt O15372)
inactive: [1] -0.007 | [2] -0.041 | [3] -0.06 | [4] -0.011 | [5] 0.034 | [6] 0.019 | [7] 0.061 | [8] 0.058 | [9] 0.031 | [10] -0.084 | [11] 0.019
